Laboratory results: article PMC11408250

Legend:
[1] = molecular target: T1, PCDH19-HA-FLAG (Protocadherin 19, endogenous in Pcdh19-HA-FLAG mice) (mouse (endogenous in mouse brain)) (UniProt Q80TF3); assay: affinity purification with mass spectrometry; Experiment 2, postnatal: PCDH19-HA-FLAG precipitated with anti-FLAG M2 affinity gel from P6-7 mouse cortex and hippocampus lysate, control mouse IgG affinity gel; IP Buffer, overnight 4 °C; LC-MS/MS
T1 sequence: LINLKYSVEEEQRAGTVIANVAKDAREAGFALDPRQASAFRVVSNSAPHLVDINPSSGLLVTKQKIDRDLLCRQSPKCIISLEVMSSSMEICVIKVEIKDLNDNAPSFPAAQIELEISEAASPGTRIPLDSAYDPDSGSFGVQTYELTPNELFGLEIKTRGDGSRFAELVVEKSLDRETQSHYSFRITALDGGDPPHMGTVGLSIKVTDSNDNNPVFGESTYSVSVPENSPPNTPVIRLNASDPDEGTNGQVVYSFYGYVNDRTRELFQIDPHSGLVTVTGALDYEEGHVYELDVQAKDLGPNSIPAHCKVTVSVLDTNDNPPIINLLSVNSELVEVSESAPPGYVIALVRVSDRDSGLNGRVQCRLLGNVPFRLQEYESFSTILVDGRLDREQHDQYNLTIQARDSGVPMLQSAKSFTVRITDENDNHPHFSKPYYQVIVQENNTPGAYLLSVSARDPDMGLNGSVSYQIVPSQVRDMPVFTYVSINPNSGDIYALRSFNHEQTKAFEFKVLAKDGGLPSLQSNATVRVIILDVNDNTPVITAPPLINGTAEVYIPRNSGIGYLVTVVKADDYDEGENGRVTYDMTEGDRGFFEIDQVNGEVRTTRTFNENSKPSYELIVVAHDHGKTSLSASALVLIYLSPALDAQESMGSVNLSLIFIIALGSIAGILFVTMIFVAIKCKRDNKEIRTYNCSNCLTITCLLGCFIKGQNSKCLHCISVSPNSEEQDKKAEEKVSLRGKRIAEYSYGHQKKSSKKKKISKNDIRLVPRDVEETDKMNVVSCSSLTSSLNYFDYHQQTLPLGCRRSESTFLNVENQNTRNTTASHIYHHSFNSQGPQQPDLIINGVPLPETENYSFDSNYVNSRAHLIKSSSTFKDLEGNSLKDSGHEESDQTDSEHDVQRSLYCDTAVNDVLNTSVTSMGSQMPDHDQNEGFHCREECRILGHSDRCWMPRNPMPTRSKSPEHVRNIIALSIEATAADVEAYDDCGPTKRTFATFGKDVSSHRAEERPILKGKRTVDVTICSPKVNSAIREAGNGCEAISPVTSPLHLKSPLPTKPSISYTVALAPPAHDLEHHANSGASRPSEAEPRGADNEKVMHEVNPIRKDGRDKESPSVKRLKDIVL

[2] = molecular target: T1, PCDH19-HA-FLAG (Protocadherin 19, endogenous in Pcdh19-HA-FLAG mice) (mouse (endogenous in mouse brain)); assay: affinity purification with mass spectrometry; Experiment 2, embryonic: PCDH19-HA-FLAG precipitated with anti-FLAG M2 affinity gel from E17.5-18.5 mouse cortex and hippocampus lysate, control mouse IgG affinity gel; IP Buffer, overnight 4 °C; LC-MS/MS

binding [1]: binds
B1: Signal-Induced Proliferation-Associated 1 (protein, UniProt P46062 1-1037)
chain: MWAGGVGSPRRGMAPAPTDDLFARKLRQPARPPLTPNTFEPRPARGPLLRSGSDAGEVRPPTPASPRARAHSHEDASRPAATPTRLFTDPLALLGLPAEEPEPTFPPVLEPRWFAHYDVQSLLFDWAPRPRGTGSHTEANSGTLAEGQTTTSDLLLGAPGFVSELGGEGELGLGGPISPPVPPALPNAAVSVLEEPQTRTTTYSLEHADLGAGYYRKYFYGKEHQNFFGLDEALGPVAVSLRREEKEGSGGGTLHSYRVIVRTTQLRTLRGTISEDALPPGPPSVSPRKLLEHVAPRLSPTCLRLGSASPKVPRQLLTLDEQVLSFQRKGGILYCRAGQGSEEEMYNNQEAGAAFMQFLTLLGDVVRLKGFESYRAQLDTKTDSTGTHSLYTTYQDHEIMFHVSTMLPYTPNNQQQLLRKRHIGNDIVTIVFQEPGSKPFCPTTIRSHFQHVFLVVRAHAPCTPHTSYRVAVSRTQDTPAFGPALPEGGGPFAANADFRAFLLAKALNGEQAAGHARQFHAMATRTRQQYLQDLATNEVTTTSLDSASRFGLPSLGGRRRATPRSPGADVQAAGALMWGVRAAPGARVAAGAETSGPDDAEVPCLLGISAETLVLVAPRDGRVVFNCACRDVLAWTFSEHQLDLYHGRGEAITLRLDGAPGQAVGEVVARLQLVSRGCETRELALPRDGQGRLGFEVDAEGFITHVERFTFAETTGLRPGARLLRVCGQTLPKLGPETAAQMLRSAPKVCVTVLPPDESGRPRRSFSELYMLSLKEPSRRGGPEPVQDETGKLVILPPTKQLLHFCLKDSSSPPGPGDLTEERTEFLRTHNSLSSGSSLSDEAPVLPNTTPDLLLVTTANPSAPGTDRETPPSQDQSGSPSSHEDTSDSGPELRASILPRTLSLRNSISKIMSEAGSETLEDEWQSISEIASTCNTILESLSREGQPISESGDPKEALKCDSEPEPGSLSEKVSHLESMLWKLQEDLQREKADRAALEEEVRSLRHNNQRLLAESESAATRLLLASKHLGAPTTDLA

binding [2]: binds
B2: Protein Phosphatase 1 Regulatory Subunit 12B (protein, UniProt Q8BG95 1-976)
chain: MAELEHLGGKRAESARARRAEQLRRWRGSLTEQEPAERQGAGRQLQTRRGSPRVRFEDGAVFLAACSSGDTDEVKKLLARGADINTVNVDGLTALHQACIDENLDMVKFLVENRANVNQQDNEGWTPLHAAASCGYLNIAEYFISHGASVGIVNSEGEVPSDLAEEPAMKDLLLEQVKKQGVDLEQSRKEEEQQMLQDARQWLNSGRIEDVRQARSGATALHVAAAKGYSEVLRLLIQAGYELNVQDHDGWTPLHAAAHWGVKEACSILAEALCDMDIRNKLGQTPFDVADEGLVEHLEMLQKKQDVLRSEKETRNKLIESDLNSKFQSGLFKNKEKMLYEEEIPKSQDTEEENKESSSSSSEEEEGEDEVSESETEKEADKKPEATVNHSNSEIKSRIMEQIPAPAQNTFSASSARRLSSLFNKAEEPKDESPSSWRLGLRKTGSHNMLSEVANSREALRDRGSSIYRSSSSPRISALLDDKDKERENKSYFSMLVPRRLSSTSDIEEKENRESAVNLVRSGSHTRQLWRDEAKGSETPQTIAPSTYTSTYLKRTPYKSQADSTAEKTADSVSSSTPLCVITNRPAPSTANGVPAATVFSSAGTDPSVEAREKRRSYLTPVRDEEAESLRKARSRQARQTRRSTQGVTLTDLQEAEKTFSRSRAERQAQEQPGEKLEDPGGLEGSTKKQEPSAAPTKGAGEGRSLEEEPIYHRLRYPTQPDKPTTPVSPSASRPSLYTGSHLLRTSRASGPDSENSETSTHATAAKEMDTSEKGEADLDDQSSNRLSVRERRRAKDRRRGTGINFWTNDEDETDVSEEVKEALHERLSRLESGGTNPTSSDSYSDRASARARREAREARLASLTSRVEEDSNRDYKKLYESALTENQKLKTKLQEAQLELADIKAKLEKMAQQKQEKTSDRSSVLEVEKRERRALERKMSEMEEEMKVLTELKSDNQRLKDENGALIRVISKLSK

binding [2]: binds
B3: Drebrin 1 (protein, UniProt Q9QXS6 1-706)
chain: MAGVSFSGHRLELLAAYEEVIREESAADWALYTYEDGSDDLKLAASGEGGLQELSGHFENQKVMYGFCSVKDSQAALPKYVLINWVGEDVPDARKCACASHVAKVAEFFQGVDVIVNASSVEDIDAGAIGQRLSNGLARLSSPVLHRLRLREDENAEPVGTTYQKTDAAVEMKRINREQFWEQAKKEEELRKEEERKKALDARLRFEQERMEQERQEQEERERRYREREQQIEEHRRKQQSLEAEEAKRRLKEQSIFGDQRDEEEESQMKKSESEVEEAAAIIAQRPDNPREFFRQQERVASASGGSCDAPAPAPFNHRPGRPYCPFIKASDSGPSSSSSSSSSPPRTPFPYITCHRTPNLSSSLPCSHLDSHRRMAPTPIPTRSPSDSSTASTPIAEQIERALDEVTSSQPPPPPPPPPPTQEAQETTPSLDEELSKEAKVTAAPEVWAGCAAEPPQAQEPPLLQSSPLEDSMCTESPEQAALAAPAEPAASVTSVADVHAADTIETTTATTDTTIANNVTPAAASLIDLWPGNGEEASTLQAEPRVPTPPSGAEASLAEVPLLNEAAQEPLPPVGEGCANLLNFDELPEPPATFCDPEEEVGETLAASQVLTMPSALEEVDQVLEQELEPEPHLLTNGETTQKEGTQASEGYFSQSQEEEFAQSEEPCAKVPPPVFYNKPPEIDITCWDADPVPEEEEGFEGGD

binding [2]: binds
B4: Pre-mRNA Processing Factor 31 (protein, UniProt Q8CCF0 1-499)
chain: MSLADELLADLEEAAEEEEGGSYGEEEEEPAIEDVQEETQLDLSGDSVKSIAKLWDSKMFAEIMMKIEEYISKQANVSEVMGPVEAAPEYRVIVDANNLTVEIENELNIIHKFIRDKYSKRFPELESLVPNALDYIRTVKELGNSLDKCKNNENLQQILTNATIMVVSVTASTTQGQQLSDEELERLEEACDMALELNASKHRIYEYVESRMSFIAPNLSIIIGASTAAKIMGVAGGLTNLSKMPACNIMLLGAQRKTLSGFSSTSVLPHTGYIYHSDIVQSLPPDLRRKAARLVAAKCTLAARVDSFHESTEGKVGYELKDEIERKFDKWQEPPPVKQVKPLPAPLDGQRKKRGGRRYRKMKERLGLTEIRKQANRMSFGEIEEDAYQEDLGFSLGHLGKSGSGRVRQTQVNEATKARISKTLQRTLQKQSVVYGGKSTIRDRSSGTASSVAFTPLQGLEIVNPQAAEKKVAEANQKYFSSMAEFLKVKGEKSGTMST

binding [2]: binds
B5: SCY1 Like Protein 2 (protein, UniProt Q8CFE4 1-930)
chain: MESMLNKLKSTVTKVTADVTSAVMGNPVTREFDVGRHIASGGNGLAWKIFNGTKKSTKQEVAVFVFDKKLIDKYQKFEKDQIIDSLKRGVQQLTRLRHPRLLTVQHPLEESRDCLAFCTEPVFASLANVLGNWENLPSSISPDIKDYKLYDVETKYGLLQVSEGLSFLHSSVKMVHGNVTPENVILNKSGAWKIMGFDFCVSSSNPSEQEPKFPCKEWDPNLPSLCLPNPEYLAPEYILSVSCETASDMYSLGAVMYAVFNQGRPIFEVNKQDIYKSFSRQLDQLSRLGSSSLTSIPEEVREHVKLLLNVTPTVRPDADQMTKIPFFDDVGAVTLQYFDTLFQRDNLQKSQFFKGLPKVLPKLPKRVIVQRILPCLTSEFVNPDMVPFVLPNVLLIAEECTKEEYIKLILPELGPVFKQQEPIQILLIFLQKMDLLLTKTPPDEIKNSVLPMVYRALEAPSIQIQELCLNIIPTFANLIDYPSMKNALIPRIKNACLQTSSLAVRVNSLVCLGKILEYLDKWFVLDDILPFLQQIPSKEPAVLMGILGIYKCTFTHKKLGITKEQLAGKVLPHLIPLSIENNLNLNQFSSFIAVIKEMLSRLESEHRTKLEQLHVMQEQQRSLDIGNQMSTSEETKVAHSGSQQIDKVFNNIGADLLSGSESENREDGMQGKQKRGSLTLEEKQKLAKEQEQAQKLKSQQPLKPQVHTPIAPIKQTKDLTDTLMENMSSLTSLSVSTPKISASSTFTPVPSTGLGMMFSTPIDNTKRNLTNGLNANMGFQTSGFSMPVNPNQNFFSGTGTAGVTTMSLGAPPTMSNFSPLTIPPASVKQPQQRPTDMSALNNLFGPQKPKVSMNQLSQQKPNQWLNQFAPPQGSPVMGSAAMGTQGNVMGQAAFGMQGNPFFNPQNFAQPPPTTMTSSSSASNDLKDLFG

No constants are given. Whether binding was seen depends on the method and setting. In cells and extracts the contact can be indirect. Here binding means that the protein was enriched with, or labelled near, the bait; the list need not be complete. Sequences can lack the tags named with a protein. Each block holds one binder with its values, some of them ahead of it.
